Common to all, as to test: pull-down (streptavidin beads, immunoblot)
One series deals with c-MET (UniProt P08581). The settings on record: 500 nM, cells treated 6 h before extraction; MNNG/HOS cells treated with 500 nM biotin-labeled oligonucleotide for 6 h, whole-cell extract, streptavidin magnetic beads; protein in an extract; folded or branched DNA.
Another series concerns the target nucleolin (NCL) (UniProt P19338). The settings on record: 500 nM, cells treated 6 h before extraction; MNNG/HOS cells treated with 500 nM biotin-labeled oligonucleotide for 6 h, whole-cell extract, streptavidin magnetic beads; protein in an extract; folded or branched DNA.
For a further series, the target named is MDM2 (UniProt Q00987). The settings on record: NCL-silenced cells (siNCL), not effectively captured; MNNG/HOS cells treated with 500 nM biotin-labeled oligonucleotide for 6 h, whole-cell extract, streptavidin magnetic beads; protein in an extract; folded or branched DNA.
A further series concerns nucleolin (NCL) + MDM2. The settings on record: MDM2 captured in an NCL-dependent manner, 500 nM, 6 h; MNNG/HOS cells treated with 500 nM biotin-labeled oligonucleotide for 6 h, whole-cell extract, streptavidin magnetic beads; protein in an extract; folded or branched DNA.

By UniProt entry, the sequences of proteins in these tests, tags left out. Where a name states a change or a piece, a line headed by the entry shows the natural chain unless it says otherwise. Residues count along the entry.
UniProt P08581, 25-1390: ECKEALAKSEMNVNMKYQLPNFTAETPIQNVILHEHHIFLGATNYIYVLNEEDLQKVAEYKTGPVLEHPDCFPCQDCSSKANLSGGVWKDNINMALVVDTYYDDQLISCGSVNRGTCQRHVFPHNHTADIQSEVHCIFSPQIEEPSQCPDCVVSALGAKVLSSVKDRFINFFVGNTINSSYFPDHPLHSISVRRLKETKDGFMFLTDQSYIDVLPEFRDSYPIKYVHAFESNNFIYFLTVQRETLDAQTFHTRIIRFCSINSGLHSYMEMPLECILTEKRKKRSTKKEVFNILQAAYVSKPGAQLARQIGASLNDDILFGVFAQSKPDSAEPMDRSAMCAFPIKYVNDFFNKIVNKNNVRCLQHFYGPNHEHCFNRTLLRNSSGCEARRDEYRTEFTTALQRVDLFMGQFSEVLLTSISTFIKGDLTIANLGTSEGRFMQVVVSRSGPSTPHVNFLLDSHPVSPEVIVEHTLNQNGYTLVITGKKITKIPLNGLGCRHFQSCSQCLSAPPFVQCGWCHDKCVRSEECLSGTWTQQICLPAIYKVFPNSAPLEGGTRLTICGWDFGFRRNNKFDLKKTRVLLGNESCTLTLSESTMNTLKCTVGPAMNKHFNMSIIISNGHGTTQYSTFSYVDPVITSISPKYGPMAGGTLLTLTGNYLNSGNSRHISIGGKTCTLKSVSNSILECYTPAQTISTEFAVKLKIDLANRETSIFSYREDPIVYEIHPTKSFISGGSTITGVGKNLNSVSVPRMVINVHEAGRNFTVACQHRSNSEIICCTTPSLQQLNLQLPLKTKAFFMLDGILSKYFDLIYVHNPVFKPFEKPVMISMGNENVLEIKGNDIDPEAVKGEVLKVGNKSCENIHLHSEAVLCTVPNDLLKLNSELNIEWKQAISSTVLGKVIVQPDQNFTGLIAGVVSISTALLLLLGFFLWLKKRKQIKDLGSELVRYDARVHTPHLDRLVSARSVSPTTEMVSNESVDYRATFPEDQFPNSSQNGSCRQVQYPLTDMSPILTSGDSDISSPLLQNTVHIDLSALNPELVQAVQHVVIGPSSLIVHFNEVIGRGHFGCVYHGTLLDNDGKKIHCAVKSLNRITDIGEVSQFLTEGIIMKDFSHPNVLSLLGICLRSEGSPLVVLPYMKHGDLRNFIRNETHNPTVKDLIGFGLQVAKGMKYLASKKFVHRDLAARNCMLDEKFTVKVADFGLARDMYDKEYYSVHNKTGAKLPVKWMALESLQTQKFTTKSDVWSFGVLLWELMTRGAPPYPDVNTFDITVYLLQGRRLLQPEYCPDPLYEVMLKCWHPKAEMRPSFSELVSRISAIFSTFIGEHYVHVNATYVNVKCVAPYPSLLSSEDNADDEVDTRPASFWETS
UniProt P19338, 2-710: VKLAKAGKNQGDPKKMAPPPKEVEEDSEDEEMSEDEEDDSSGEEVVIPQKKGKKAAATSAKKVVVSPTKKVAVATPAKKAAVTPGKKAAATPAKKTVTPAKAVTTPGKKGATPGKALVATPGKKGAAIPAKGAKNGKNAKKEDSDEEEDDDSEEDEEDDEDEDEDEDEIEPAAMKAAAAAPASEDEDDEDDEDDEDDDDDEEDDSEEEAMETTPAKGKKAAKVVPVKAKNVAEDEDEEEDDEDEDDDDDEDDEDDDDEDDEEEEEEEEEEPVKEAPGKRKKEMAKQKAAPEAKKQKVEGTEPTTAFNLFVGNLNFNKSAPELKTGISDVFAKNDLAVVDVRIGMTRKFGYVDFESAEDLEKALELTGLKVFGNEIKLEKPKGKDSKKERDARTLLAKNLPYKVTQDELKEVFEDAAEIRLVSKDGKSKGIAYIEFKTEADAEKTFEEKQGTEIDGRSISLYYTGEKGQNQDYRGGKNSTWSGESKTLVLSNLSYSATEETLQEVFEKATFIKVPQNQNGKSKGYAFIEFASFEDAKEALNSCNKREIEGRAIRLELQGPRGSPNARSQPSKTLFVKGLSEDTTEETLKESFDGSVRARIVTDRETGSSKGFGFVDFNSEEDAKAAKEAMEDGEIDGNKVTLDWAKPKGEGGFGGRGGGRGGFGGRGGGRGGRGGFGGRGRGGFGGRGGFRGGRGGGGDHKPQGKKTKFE
UniProt Q00987: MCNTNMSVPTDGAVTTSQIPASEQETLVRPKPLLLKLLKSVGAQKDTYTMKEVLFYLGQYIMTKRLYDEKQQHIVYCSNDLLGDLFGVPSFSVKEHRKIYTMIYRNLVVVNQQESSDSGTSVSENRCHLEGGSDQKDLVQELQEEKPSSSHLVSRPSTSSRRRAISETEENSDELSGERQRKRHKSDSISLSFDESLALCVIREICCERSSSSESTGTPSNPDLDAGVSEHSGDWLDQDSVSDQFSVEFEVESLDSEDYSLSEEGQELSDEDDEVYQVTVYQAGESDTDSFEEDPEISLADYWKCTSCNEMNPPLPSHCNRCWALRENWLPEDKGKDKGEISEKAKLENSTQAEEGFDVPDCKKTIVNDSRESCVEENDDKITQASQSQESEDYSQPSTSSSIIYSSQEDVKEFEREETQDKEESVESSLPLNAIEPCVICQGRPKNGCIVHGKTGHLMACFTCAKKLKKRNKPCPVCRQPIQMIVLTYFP

This note sets out measurements from PMC11667235.

Where cells or extracts were used, other partners may take part. For some of these results: Negatives hold for the conditions tested. For some of these results: The exact form of at least one protein or probe is not confirmed. For some of these results: Weaker means in comparison with the reference protein, sequence or condition of that experiment.

On to GGTGGTGGTGGTTGTGGTGGTGGTGG [AS1411], for which the binding result in the series with c-MET is given as “no binding”; with nucleolin (NCL) it was “binds”; in the series with MDM2 it was “binds more weakly”; with nucleolin (NCL) + MDM2 it was “binds”.
